Measurements as given in PMC9332457.
Results are given in words; binding and its absence hold for the method and conditions named. Binding can be weak; no strength is given. Where a sequence is shown, tags or fusion partners need not be part of it.

Molecular target: T1, MoAtg18, two-hybrid fusion of the pairwise assays (Magnaporthe oryzae) (UniProt Q524W4)
T1 sequence: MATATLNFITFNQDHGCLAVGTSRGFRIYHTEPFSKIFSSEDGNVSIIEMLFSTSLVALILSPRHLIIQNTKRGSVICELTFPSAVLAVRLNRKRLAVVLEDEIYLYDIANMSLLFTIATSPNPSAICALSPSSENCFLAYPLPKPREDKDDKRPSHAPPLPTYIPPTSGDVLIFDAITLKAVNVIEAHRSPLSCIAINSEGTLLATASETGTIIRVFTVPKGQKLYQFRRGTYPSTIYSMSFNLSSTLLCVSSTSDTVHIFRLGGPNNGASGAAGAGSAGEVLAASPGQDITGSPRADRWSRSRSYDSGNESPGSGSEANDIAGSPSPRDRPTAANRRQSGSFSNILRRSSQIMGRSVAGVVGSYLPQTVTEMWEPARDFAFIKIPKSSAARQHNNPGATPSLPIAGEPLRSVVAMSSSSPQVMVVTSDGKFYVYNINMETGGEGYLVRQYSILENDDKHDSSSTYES
Experiment: two-hybrid

MoKns1–N3 (332–670 aa), two-hybrid fusion (from UniProt G4N5S6) (domain or fragment)
binding: binds
